Experimental data taken from article PMC11664589 (Journal of the American Chemical Society, 2024).

Legend:
[1] = general procedure: Fmoc solid-phase peptide synthesis in flow; PEG resin; Rink amide, HMPB, photolinker or MeDbz linker; details: whole synthesis
[2] = general procedure: Fmoc solid-phase peptide synthesis in flow; NovaPEG Rink Amide resin; details: whole synthesis, scale 20 µmol
[3] = general procedure: Fmoc solid-phase peptide synthesis in flow; NovaPEG Rink Amide; details: whole synthesis
[4] = general procedure: Fmoc solid-phase peptide synthesis in flow; NovaPEG Rink Amide resin (0.20 mmol/g); details: whole synthesis, scale 30 µmol
[5] = general procedure: Fmoc solid-phase peptide synthesis in flow; low loading resin (0.20 mmol/g); details: whole synthesis, UHPLC AUC at 214 nm; LCMS; run 1
[6] = general procedure: Fmoc solid-phase peptide synthesis in flow; Rink amide + Photolinker on NovaPEG resin; details: whole synthesis
[7] = general procedure: Fmoc solid-phase peptide synthesis in flow; HMPB ChemMatrix resin; details: whole synthesis
[8] = general procedure: Fmoc solid-phase peptide synthesis in flow; Photolinker on NovaPEG resin; details: whole synthesis, 214 nm, scale 24 µmol
[9] = general procedure: Fmoc solid-phase peptide synthesis in flow; MeDbz linker on NovaPEG resin; details: whole synthesis
[10] = general procedure: Fmoc solid-phase peptide synthesis in flow; HMPB + Rink double linker; details: whole synthesis
[11] = general procedure: Fmoc solid-phase peptide synthesis in flow; NovaPEG Rink Amide resin (0.41 mmol/g); details: whole synthesis, scale 21 µmol; run 2
[12] = general procedure: Fmoc solid-phase peptide synthesis in flow; Rink amide linker on HMPB ChemMatrix resin; details: whole synthesis
[13] = UHPLC AUC at 214 nm, LCMS, run 2

Substance: Aβ42[27–42]-MeNbz-Arg6
- crude HPLC purity ([1]; UHPLC AUC at 214 nm, LCMS): 73%
- final HPLC purity ([1]; UHPLC AUC at 214 nm, LCMS): 96%
- isolated yield ([1]; overall): 7%

Substance: H2N- KGAIIGLMVG GVVIA-CONH2
- crude mass [2]: 4.7 mg
- crude LC-MS purity ([1]; 214 nm): 43% purity
- crude HPLC purity ([1]; AUC at 214 nm): 33% purity

Substance: H2N- WFFTLISTIM RRRRRR-CONH2
- crude HPLC purity ([1]; 214 nm): 77% purity by UHPLC

Substance: H2N-FIKNIIIQDC MWSGFSAAAK RRRRRR-CONH2
- crude HPLC purity ([1]; 214 nm): 76% purity by UHPLC

Substance: H2N-FREAKAEGCD ITIILS-CONH2
- crude mass ([3]; scale 22.5 µmol): 3.0 mg
- crude mass ([3]; scale 48 µmol): 1.6 mg
- crude HPLC purity ([4]; 214 nm): 77%
- crude LC-MS purity ([4]; 214 nm): 79%
- crude mass [4]: 4.5 mg
- crude HPLC purity [5]: 77%
- crude LC-MS purity ([6]; 214 nm, run 7): 8% purity by LCMS
- crude LC-MS purity ([7]; 214 nm, run 5): 27% purity by LCMS
- crude HPLC purity ([7]; AUC at 214 nm, run 1): 19% purity by UHPLC
- crude mass ([7]; scale 49 µmol): 1.4 mg
- crude LC-MS purity [8]: 37% purity by LCMS
- crude LC-MS purity ([9]; 214 nm, run 6): 38% purity by LCMS
- crude mass ([9]; scale 40 µmol): 6.8 mg
- crude mass [2]: 3.7 mg
- difficulty met [10]: drastically increased aggregation in Barstar[75–90] and very low peptide purity
- crude HPLC purity ([1]; 214 nm, scale 21 µmol): 55%
- crude LC-MS purity ([1]; 214 nm, scale 21 µmol): 55%
- crude HPLC purity ([1]; 214 nm, run 1): 63%
- crude LC-MS purity ([1]; 214 nm, run 1): 62%
- crude HPLC purity ([1]; 214 nm, run 2): 44% purity
- crude LC-MS purity ([1]; 214 nm, run 3): 39% purity
- crude LC-MS purity ([1]; 214 nm, run 4): 46% purity
- crude HPLC purity ([1]; AUC at 214 nm, run 2): 38% purity
- crude LC-MS purity ([1]; UHPLC AUC at 214 nm, LCMS, run 1): 37%
- crude HPLC purity [1, 13]: 19%
- crude LC-MS purity [1, 13]: 38%
- crude HPLC purity ([1]; UHPLC AUC at 214 nm, LCMS, run 3): 62%
- crude HPLC purity ([1]; UHPLC AUC at 214 nm, LCMS, run 4): 38% and 55%
- crude mass ([1]; scale 21 µmol, run 1): 3.6 mg
- crude mass [11]: 3.8 mg
- crude LC-MS purity ([12]; 214 nm, run 2): 2% purity by LCMS
- crude mass ([12]; scale 12 µmol): 1.4 mg

Substance: H2N-FREAKAEGCD ITIILS-MeNbz -RRRRRR-CONH2
- crude HPLC purity ([1]; 214 nm): 58%
- crude LC-MS purity ([1]; 214 nm): 50%
- crude mass ([1]; scale 10 µmol): 1.5 mg

Substance: H2N-FREAKAEGCD ITIILSKKKK KK-CONH2
- crude mass ([3]; scale 21 µmol): 4.0 mg
- crude LC-MS purity ([1]; 214 nm): 33%
- crude HPLC purity ([1]; AUC at 214 nm, run 1): 33%
- crude HPLC purity ([1]; AUC at 214 nm, run 2): 21%
- crude HPLC purity ([1]; UHPLC AUC at 214 nm, LCMS): 47%
- crude LC-MS purity ([1]; UHPLC AUC at 214 nm, LCMS): 43%
- crude mass ([1]; scale 41 µmol): 4.0 mg

Substance: H2N-FREAKAEGCD ITIILSPPPP EK-CONH2
- difficulty met [1]: both NBDY sequences increased aggregation, leading to decreased crude purity
- crude LC-MS purity ([1]; 214 nm): 46%
- crude HPLC purity ([1]; UHPLC AUC at 214 nm, LCMS): 50%
- crude mass ([1]; scale 21 µmol): 4.0 mg

Substance: H2N-FREAKAEGCD ITIILSPPPP PP-CONH2
- crude mass ([3]; scale 21 µmol): 3.0 mg
- crude HPLC purity ([1]; 214 nm): 58% purity by UHPLC
- crude LC-MS purity ([1]; 214 nm): 56% purity by LCMS

Substance: H2N-FREAKAEGCD ITIILSRRRR RR-CONH2
- crude mass ([6]; scale 8.9 µmol): 0.70 mg
- crude HPLC purity ([1]; 214 nm): 70% purity by UHPLC
- crude LC-MS purity ([1]; 214 nm): 62% purity by LCMS
- crude HPLC purity ([1]; AUC at 214 nm): 62% by UHPLC

Substance: H2N-HAEGTFTSDVSSYLEGQAAKEFIAWLVKGRRRR-CONH2
- crude mass ([3]; scale 22 µmol): 17 mg
- crude LC-MS purity ([1]; 214 nm): 62%
- crude HPLC purity ([1]; AUC at 214 nm): 60%

Substance: H2N-HAEGTFTSDVSSYLEGQAAKEFIAWLVKGRRRRRRR-CONH2
- crude HPLC purity ([1]; 214 nm): 84% purity by UHPLC

Where “and” joins values, the source holds several entries; their conditions need not be identical. Identical values can stand only once.
